Reference: PMC6280496
No constants are given. Whether binding was seen depends on the method and setting. In cells and extracts the contact can be indirect. For some of these results: A result given as binding can be weak or reduced; the word gives no strength.

Tests used:
Assay in all cases: co-IP; CCA cells lysed in ice-cold IP lysis buffer with protease and phosphatase inhibitors; Dynabeads protein G IP kit; precipitates analysed by western blot
[1] = biological target: integrin α6β1 (human (endogenous in CCA cells))
[2] = biological target: integrin α6β4 (human (endogenous in CCA cells))
[3] = biological target: integrin α5β1 (human (endogenous in CCA cells))
[4] = biological target: integrin αVβ6 (human (endogenous in CCA cells))

B1: Tetraspanin 1 (TSPAN1) (protein, UniProt O60635 1-241)
chain: MQCFSFIKTMMILFNLLIFLCGAALLAVGIWVSIDGASFLKIFGPLSSSAMQFVNVGYFLIAAGVVVFALGFLGCYGAKTESKCALVTFFFILLLIFIAEVAAAVVALVYTTMAEHFLTLLVVPAIKKDYGSQEDFTQVWNTTMKGLKCCGFTNYTDFEDSPYFKENSAFPPFCCNDNVTNTANETCTKQKAHDQKVEGCFNQLLYDIRTNAVTVGGVAAGIGGLELAAMIVSMYLYCNLQ
binding [1]: binds | binding [2]: no binding | binding [3]: no binding | binding [4]: no binding
